No constants are given. Whether binding was seen depends on the method and setting. In cells and extracts the contact can be indirect. A yes stands for co-enrichment or nearness to the bait. Other partners may have been found.

Among the data in PMC6453939 are binding values, retold here.

In this test the target is T1, syntaxin 6 (Stx6), full-length, reconstituted in liposomes (Rattus norvegicus) (UniProt Q63635).
T1 sequence: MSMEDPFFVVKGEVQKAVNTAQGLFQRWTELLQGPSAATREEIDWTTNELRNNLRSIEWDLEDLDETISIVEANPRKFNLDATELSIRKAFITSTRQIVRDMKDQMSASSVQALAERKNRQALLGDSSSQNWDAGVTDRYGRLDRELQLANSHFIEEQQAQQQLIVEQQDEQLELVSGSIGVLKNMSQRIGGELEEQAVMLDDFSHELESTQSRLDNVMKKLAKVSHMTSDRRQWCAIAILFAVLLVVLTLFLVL
Put plainly: affinity purification with mass spectrometry; SNARE-containing proteoliposomes incubated with HeLa cytosol fraction 30 min at 37 °C; liposomes separated (flotation gradient in the results, streptavidin Dynabeads via biotinyl Cap PE in the methods), washed with HB150 (150 mM KCl, 20 mM HEPES pH 7.5); bound proteins identified by proteomics; only the target purified.

B1: Vps51 (protein, UniProt Q9UID3 1-782)
chain: MAAAAAAGPSPGSGPGDSPEGPEGEAPERRRKAHGMLKLYYGLSEGEAAGRPAGPDPLDPTDLNGAHFDPEVYLDKLRRECPLAQLMDSETDMVRQIRALDSDMQTLVYENYNKFISATDTIRKMKNDFRKMEDEMDRLATNMAVITDFSARISATLQDRHERITKLAGVHALLRKLQFLFELPSRLTKCVELGAYGQAVRYQGRAQAVLQQYQHLPSFRAIQDDCQVITARLAQQLRQRFREGGSGAPEQAECVELLLALGEPAEELCEEFLAHARGRLEKELRNLEAELGPSPPAPDVLEFTDHGGSGFVGGLCQVAAAYQELFAAQGPAGAEKLAAFARQLGSRYFALVERRLAQEQGGGDNSLLVRALDRFHRRLRAPGALLAAAGLADAATEIVERVARERLGHHLQGLRAAFLGCLTDVRQALAAPRVAGKEGPGLAELLANVASSILSHIKASLAAVHLFTAKEVSFSNKPYFRGEFCSQGVREGLIVGFVHSMCQTAQSFCDSPGEKGGATPPALLLLLSRLCLDYETATISYILTLTDEQFLVQDQFPVTPVSTLCAEARETARRLLTHYVKVQGLVISQMLRKSVETRDWLSTLEPRNVRAVMKRVVEDTTAIDVQVGLLYEEGVRKAQSSDSSKRTFSVYSSSRQQGRYAPSYTPSAPMDTNLLSNIQKLFSERIDVFSPVEFNKVSVLTGIIKISLKTLLECVRLRTFGRFGLQQVQVDCHFLQLYLWRFVADEELVHLLLDEVVASAALRCPDPVPMEPSVVEVICERG
B1: the binding result is recorded as “binds”.
